Our source for the binding values is PMC11461529.

These are yes or no findings as the source states them, for the method shown. In cells and extracts the contact can be indirect. These calls come from enrichment with a bait or labelling near it, and not all partners need be listed.

Assay [1] deals with T1, katanin-like 2 (KL2) (mouse (endogenous in mouse oocytes)) (UniProt Q9D3R6).
T1 sequence: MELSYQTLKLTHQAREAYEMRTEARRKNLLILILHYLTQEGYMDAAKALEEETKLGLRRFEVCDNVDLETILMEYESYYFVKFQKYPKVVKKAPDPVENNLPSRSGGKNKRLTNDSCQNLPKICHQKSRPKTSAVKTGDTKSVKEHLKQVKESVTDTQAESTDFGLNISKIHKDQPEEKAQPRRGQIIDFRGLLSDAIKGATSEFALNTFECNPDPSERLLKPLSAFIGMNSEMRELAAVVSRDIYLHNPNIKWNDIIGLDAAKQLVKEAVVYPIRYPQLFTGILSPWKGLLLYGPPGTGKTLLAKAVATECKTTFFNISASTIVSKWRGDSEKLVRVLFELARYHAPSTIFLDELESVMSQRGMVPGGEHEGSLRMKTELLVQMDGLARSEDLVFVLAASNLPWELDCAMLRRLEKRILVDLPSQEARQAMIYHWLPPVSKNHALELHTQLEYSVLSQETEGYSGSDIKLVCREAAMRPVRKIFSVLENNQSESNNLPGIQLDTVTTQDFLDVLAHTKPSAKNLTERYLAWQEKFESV
Briefly: affinity purification with mass spectrometry; preliminary LC-MS of what KL2 pulled down; lysate not stated.

Assay [2] has as its target T1, katanin-like 2 (KL2) (mouse (endogenous in mouse oocytes)). Briefly: affinity purification with mass spectrometry; anti-KL2 antibody or control IgG on protein A/G agarose beads, mouse oocyte lysate, overnight 4 C, IP buffer (20 mmol/L Tris-HCl pH 8.0, 150 mmol/L NaCl, 10 mmol/L EDTA, 1 mmol/L EGTA, 0.05% Triton X-100, 0.05% NP-40); SDS-PAGE, silver staining, bands distinct from control IgG identified by MALDI-TOF-MS.

Consider “histone 1 (H1) (mouse (endogenous in mouse cells))”, for which, in assay [1], the binding entry is given as “binds”.

Regarding “histone H2 (mouse (endogenous in mouse cells))”, the binding entry in assay [1] is “binds”.

B1: eukaryotic elongation factor-2 kinase (eEF2K) (enzyme, UniProt O08796 1-724)
chain: MADEDLIFCLEGVDGGRCSRAGHNADSDTDSDDDEGYFICPITDDHMSNQNVSSKVQSYYSNLTKTECGSTGSPASSFHFKEAWKHAIEKAKHMPDPWAEFHLEDIATEHATRHRYNAVTGEWLKDEVLIKMASQPFGRGAMRECFRTKKLSNFLHAQQWKGASNYVAKRYIEPVDRSVYFEDVQLQMEAKLWGEDYNRHKPPKQVDIMQMCIIELKDRPGQPLFHLEHYIEGKYIKYNSNSGFVRDDNIRLTPQAFSHFTFERSGHQLIVVDIQGVGDLYTDPQIHTEKGTDFGDGNLGVRGMALFFYSHACNRICQSMGLTPFDLSPREQDAVNQSTRLLQSAKTILRGTEEKCGSPRIRTLSSSRPPLLLRLSENSGDENMSDVTFDSLPSSPSSATPHSQKLDHLHWPVFGDLDNMGPRDHDRMDNHRDSENSGDSGYPSEKRSDLDDPEPREHGHSNGNRRHESDEDSLGSSGRVCVETWNLLNPSRLHLPRPSAVALEVQRLNALDLGRKIGKSVLGKVHLAMVRYHEGGRFCEKDEEWDRESAIFHLEHAADLGELEAIVGLGLMYSQLPHHILADVSLKETEENKTKGFDYLLKAAEAGDRHSMILVARAFDTGLNLSPDRCQDWSEALHWYNTALETTDCDEGGEYDGIQDEPQYALLAREAEMLLTGGFGLDKNPQRSGDLYTQAAEAAMEAMKGRLANQYYEKAEEAWAQMEE
As to B1, in assay [2], the binding entry was “binds”.
